Part of at least one peptide drawing is inferred or uncertain, most often the ends.
How the values were obtained:
[1] = molecular target: human delta (OPRD1) opioid receptor (Homo sapiens, UniProt P41143); format: cell-based; settings: 100 nM caged compound added to parent peptide dilution series
[2] = molecular target: murine mu opioid receptor (OPRM1) (Mus musculus, UniProt P42866); format: cell-based; settings: 100 nM caged compound added to parent peptide dilution series
[3] = molecular target: human kappa opioid receptors (OPRK1) (Homo sapiens, UniProt P41145); format: cell-based
[4] = format: physicochemical; settings: pH 7.4 phosphate buffered saline, 355 nm laser illumination, RP-HPLC

The chains behind the UniProt entries cited, without tags or fusion partners. Where a name states a change or a piece, a line headed by the entry shows the natural chain unless it says otherwise.
UniProt P41143, whole entry, looked up: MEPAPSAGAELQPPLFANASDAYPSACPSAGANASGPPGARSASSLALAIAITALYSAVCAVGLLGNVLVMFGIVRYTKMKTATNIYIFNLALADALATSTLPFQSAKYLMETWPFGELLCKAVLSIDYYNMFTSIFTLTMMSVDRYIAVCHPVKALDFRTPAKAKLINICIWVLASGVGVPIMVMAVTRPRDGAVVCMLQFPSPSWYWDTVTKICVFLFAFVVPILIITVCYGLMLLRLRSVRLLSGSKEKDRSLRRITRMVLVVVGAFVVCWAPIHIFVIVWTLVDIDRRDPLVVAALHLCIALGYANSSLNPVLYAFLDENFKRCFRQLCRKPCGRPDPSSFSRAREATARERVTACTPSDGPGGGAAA
UniProt P42866, whole entry, looked up: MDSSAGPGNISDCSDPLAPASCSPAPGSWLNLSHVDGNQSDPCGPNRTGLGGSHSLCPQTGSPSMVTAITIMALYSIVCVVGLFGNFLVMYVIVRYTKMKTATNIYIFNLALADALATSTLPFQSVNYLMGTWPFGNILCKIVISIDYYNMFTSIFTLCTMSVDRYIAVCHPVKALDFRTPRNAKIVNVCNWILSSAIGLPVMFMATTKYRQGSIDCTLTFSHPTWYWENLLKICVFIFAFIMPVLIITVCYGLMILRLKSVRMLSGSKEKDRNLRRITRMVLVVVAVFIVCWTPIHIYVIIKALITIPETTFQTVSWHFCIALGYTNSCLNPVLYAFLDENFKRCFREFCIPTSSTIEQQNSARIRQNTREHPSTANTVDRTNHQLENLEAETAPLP
UniProt P41145: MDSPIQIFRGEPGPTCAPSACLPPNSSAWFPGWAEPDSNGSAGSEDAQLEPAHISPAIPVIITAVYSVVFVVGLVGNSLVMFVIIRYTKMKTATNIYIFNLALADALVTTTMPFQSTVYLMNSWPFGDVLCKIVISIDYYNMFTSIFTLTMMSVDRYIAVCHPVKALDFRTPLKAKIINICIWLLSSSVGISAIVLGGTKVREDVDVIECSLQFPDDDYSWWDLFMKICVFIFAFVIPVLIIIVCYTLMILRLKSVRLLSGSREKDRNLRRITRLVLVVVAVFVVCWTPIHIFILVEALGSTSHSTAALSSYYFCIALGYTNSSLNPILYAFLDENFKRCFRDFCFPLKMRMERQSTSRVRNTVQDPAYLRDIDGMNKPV

Compound: CC[C@H](C)[C@H](NC(=O)[C@H](CCCNC(=N)N)NC(=O)[C@H](CCCNC(=N)N)NC(=O)[C@H](CC(C)C)NC(=O)[C@H](Cc1ccccc1)NC(=O)CNC(=O)CNC(=O)[C@@H](N)Cc1ccc(OC(C(=O)O)c2ccccc2[N+](=O)[O-])cc1)C(=O)O (stereo partly shown) [CYD8, CNB-Y-Dyn-8]
- antagonism at delta receptors [1]: no indications of antagonism
- antagonism at mu receptors [2]: no indications of antagonism
- antagonism at kappa receptors [3]: no indications of antagonism
- photorelease of parent peptide [4]: cleanly photorelease their parent peptides
